Some of the results follow. These are further read-outs of the screen, such as a control signal, another cell line or another target. No call is given for them. Most of these compounds were active or inconclusive in the main read-out, so they are no random draw. Potencies come from curve fits of mixed quality, noted in brackets.
Assay: IkB Signaling
Conditions: ABC-DLBCL IkBa-CBG/CBR dual luciferase ratio (green luciferase fused to IkBa over red control in OCI-Ly3 lymphoma cells), 4 h
Outline: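 In this assay, an IκBα–CBG68 fusion accumulates when IKK-driven degradation is blocked; native CBR normalizes for cell number. OCI-Ly3 cells were treated 4 h with compound and doxycycline, then green and red light read after Chroma-Glo addition.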

[1] = measured here: control luc red channel unless noted
[2] = measured here: IkB-luc green channel
[3] = measured here: control luc red channel

For `Cc1ccc(CN2c3ccccc3S(=O)(=O)c3ccccc32)cc1`, the AC50 [1] was 10 µM [falling, partial curve].
In the case of `CCCCC(CC)Cn1c2nc3ccccc3nc2c2c(=N)oc(C)nc21` (stereo not given), the AC50 [1] is reported as 25.1 µM [falling, single point].
With `Cc1ccc(NC(=O)Cn2c(-c3ccc4c(c3)OCO4)cn(-c3ccccc3)c2=O)cc1` the AC50 [1] was 25.1 µM [falling, partial curve].
With `Cc1ccc(CSc2nc(=O)c3c(n2C)NC(=O)CC3c2ccc(OC(C)C)cc2)cc1` (stereo not given) the AC50 [1] was 20 µM [falling, single point].
With `CCC(C(=O)Nc1cccc(C#N)c1)n1c(=O)c(-c2ccccc2NC(C)=O)nc2ccccc21` (stereo not given) the AC50 [1] was 0.316 µM [rising, partial curve, poor fit].
For `Cc1ccc(S(=O)(=O)Nc2cc3c(cc2N2CCOCC2)n(C)c(=O)n3C)c(C)c1`, the AC50 [1] was 0.126 µM [rising, full curve, poor fit].
In the case of `CCn1cc(C(=O)NCCc2ccccc2)c(=O)c2cc(S(=O)(=O)N(C)C3CCCCC3)ccc21`, the AC50 [1] is reported as 39.8 µM [falling, single point].
In the case of `CC(=O)c1[nH]c(C)c(C(=O)NCCc2ccc(C)cc2)c1C`, the AC50 [1] is reported as 31.6 µM [falling, single point].
In the case of `COc1ccc(-c2noc(-c3ccc(NCc4ccccc4OC)c([N+](=O)[O-])c3)n2)cc1`, the AC50 [1] is reported as 7.94 µM [falling, partial curve].
For `CC(=O)Nc1cccc(C(=O)NCc2ccc3c(c2)CCN3C(C)=O)c1`, the AC50 [1] was 0.01 µM [falling, full curve, poor fit].
In the case of `CCOC(=O)Cc1csc(NC(=O)CS(=O)(=O)Cc2ccccc2)n1`, the AC50 [1] is reported as 10 µM [falling, partial curve].
For `CCOc1ccccc1N(C)C(=O)C1CCCN(c2ncnc3onc(-c4ccc(F)cc4)c23)C1` (stereo not given), the AC50 [1] was 39.8 µM [falling, single point].
With `Cc1c(CCNC(=O)Cc2ccccc2)sc2nc(-c3ccc(F)cc3)nn12` the AC50 [1] was 31.6 µM [falling, single point].
In the case of `O=C(CN1CCN(Cc2ccc(Cl)cc2)C1=O)NCc1ccc(F)cc1`, the AC50 [1] is reported as 10 µM [falling, partial curve].
With `CCCCN(CC)CCCNC(=O)c1cc2c(-c3ccc(OC)c(OC)c3)nn(C)c2s1` the AC50 [1] was 25.1 µM [falling, single point].
For `CCN(CC)C(=O)Oc1ccc2c(=O)c(-c3ccc(OC)cc3)c(C)oc2c1`, the AC50 [1] was 20 µM [falling, partial curve].
In the case of `O=C(NCc1ccc(F)cc1)c1ccc(NC(=O)N2CC3CCCN3c3ccccc32)cc1` (stereo not given), the AC50 [1] is reported as 5.01 µM [falling, partial curve].
For `O=C1c2oc3ccc(F)cc3c(=O)c2C(c2cccc([N+](=O)[O-])c2)N1CCCN1CCOCC1` (stereo not given), the AC50 [1] was 20 µM [falling, single point].
For `CCc1ccc(CN(C(=O)c2cc3ccccc3oc2=O)C2CCS(=O)(=O)C2)cc1` (stereo not given), the AC50 [1] was 25.1 µM [falling, partial curve].
With `Cc1ccc2nc(N(Cc3cccnc3)C(=O)C3COc4ccccc4O3)sc2c1` (stereo not given) the AC50 [1] was 10 µM [rising, partial curve].
In the case of `CCCCNC(=O)CCCn1c(=O)c2ccccc2n(Cc2ccccc2C)c1=O`, the AC50 [1] is reported as 0.0251 µM [rising, full curve].
For `COc1ccc2cc3cc(C(=O)NCC4COc5ccccc5O4)oc3nc2c1` (stereo not given), the AC50 [1] was 3.16 µM [falling, single point].
With `CCc1c(C)sc2c1CCN(Cc1ccc(F)cc1)C2c1ccccc1` (stereo not given) the AC50 [1] was 31.6 µM [falling, partial curve, poor fit].
In the case of `CCC(C)(C)n1nnnc1C(c1ccc(O)c(OC)c1)N1CCN(c2nc3ccccc3s2)CC1` (stereo not given), the AC50 [2] is reported as 15.8 µM [rising, partial curve] and the AC50 [3] is reported as 10 µM [falling, partial curve].
In the case of `Cc1coc2cc3oc(=O)c(CC(=O)N4CCCCC4)c(C)c3cc12`, the AC50 [1] is reported as 39.8 µM [falling, single point].
In the case of `Cc1cc(C)c2c(=O)cc(C(=O)Nc3nc4ccc(F)cc4s3)oc2c1`, the AC50 [1] is reported as 0.0316 µM [falling, full curve].
For `CCCN(CCC)CC(O)Cn1cc(/C=C/C(=O)c2ccc(OC)cc2)c2ccccc21` (stereo not given), the AC50 [1] was 15.8 µM [falling, partial curve].
For `CCC(CC)C(=O)Nc1c(C(=O)N2CCN(c3ccccc3)CC2)oc2ccccc12`, the AC50 [1] was 15.8 µM [falling, partial curve].
In the case of `CCC(C)(C)n1nnnc1C(c1cc2ccc(OC)cc2[nH]c1=O)N1CCc2ccccc2C1` (stereo not given), the AC50 [2] is reported as 10 µM [rising, partial curve] and the AC50 [3] is reported as 3.16 µM [falling, partial curve].
With `O=C(Nc1ccc(F)cc1)c1ccc(Cn2nc(N3CCN(c4ccccc4)CC3)ccc2=O)o1` the AC50 [1] was 2.51 µM [falling, full curve].
With `C=CCn1c(=O)[nH]c2cc(C(=O)N3CCN(c4ccc(C(C)=O)cc4)CC3)ccc2c1=O` the AC50 [1] was 25.1 µM [falling, partial curve].
In the case of `Cn1c(=O)c2c(nc(CN3CCN(C(=O)c4ccco4)CC3)n2CCc2ccccc2)n(C)c1=O`, the AC50 [1] is reported as 200 nM [rising, full curve] [measured here: IkB-luc green channel].
In the case of `COc1cccc(-c2cc(C(=O)N3CCN(c4ccccc4OC)CC3)no2)c1`, the AC50 [1] is reported as 25.1 µM [falling, single point].
In the case of `COc1ccc(Cl)cc1NC(=O)Cc1coc2c(C)c(C)ccc12`, the AC50 [1] is reported as 15.8 µM [falling, partial curve].
For `O=C(CSc1c2c(nc3ccc(Cl)cc13)CCCC2)NCc1ccccc1Cl`, the AC50 [1] was 5.01 µM [falling, partial curve].
In the case of `COc1ccc(CCNC(=O)c2cc(=O)c3cc(C)cc(C)c3o2)cc1OC`, the AC50 [1] is reported as 15.8 µM [falling, single point].
In the case of `Cc1cc(C)n(-c2ccc(C(=O)OCc3nnc(-c4ccccc4)o3)cc2)n1`, the AC50 [1] is reported as 15.8 µM [falling, partial curve].
With `COc1ccc(C(C(O)C(=O)c2c[nH]c3ccccc23)N2CCN(c3ccccc3)CC2)cc1` (stereo not given) the AC50 [1] was 25.1 µM [falling, partial curve].

From PubChem BioAssay AID445 (National Center for Advancing Translational Sciences (NCATS), 2006)
